Values of other authors in patent US20240184137A1, “CONTACT LENSES AND METHODS OF MAKING CONTACT LENSES” (University of Florida Research Foundation, Inc., priority 2021, published 2024).

Details: ACUVUE OASYS lenses loaded with 30% VE, prior research; cited from earlier work

C[C@@H]1C[C@H]2[C@@H]3CCC4=CC(=O)C=C[C@]4(C)[C@@]3(F)[C@@H](O)C[C@]2(C)[C@@]1(O)C(=O)COP(=O)(O)O [DXP, dexamethasone sodium phosphate]
Release duration: about three
